The test deals with cyclin-dependent kinase inhibitor 1A (P21) (human (endogenous in Ishikawa and HEC-1A)) (UniProt P38936). Put plainly: co-IP; Ishikawa and HEC-1A cells transiently transfected with CDC20-Myc, with or without ZXF1 (lncRNA) overexpression; lysed in NETN buffer (20 mM Tris/HCl pH 8.0, 100 mM NaCl, 1 mM EDTA, 0.5% NP-40); lysate with Protein A/G agarose beads and antibodies overnight; western blotting. For orientation: A western blot detects proteins with antibodies after separation by electrophoresis.

Sequences of proteins named here, by UniProt entry; tags and fusion partners are left off.
UniProt P38936: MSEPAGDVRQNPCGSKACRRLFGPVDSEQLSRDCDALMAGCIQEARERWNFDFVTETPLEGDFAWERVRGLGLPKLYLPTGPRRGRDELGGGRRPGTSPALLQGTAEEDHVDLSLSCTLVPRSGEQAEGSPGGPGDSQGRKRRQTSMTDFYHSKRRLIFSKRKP
UniProt Q12834: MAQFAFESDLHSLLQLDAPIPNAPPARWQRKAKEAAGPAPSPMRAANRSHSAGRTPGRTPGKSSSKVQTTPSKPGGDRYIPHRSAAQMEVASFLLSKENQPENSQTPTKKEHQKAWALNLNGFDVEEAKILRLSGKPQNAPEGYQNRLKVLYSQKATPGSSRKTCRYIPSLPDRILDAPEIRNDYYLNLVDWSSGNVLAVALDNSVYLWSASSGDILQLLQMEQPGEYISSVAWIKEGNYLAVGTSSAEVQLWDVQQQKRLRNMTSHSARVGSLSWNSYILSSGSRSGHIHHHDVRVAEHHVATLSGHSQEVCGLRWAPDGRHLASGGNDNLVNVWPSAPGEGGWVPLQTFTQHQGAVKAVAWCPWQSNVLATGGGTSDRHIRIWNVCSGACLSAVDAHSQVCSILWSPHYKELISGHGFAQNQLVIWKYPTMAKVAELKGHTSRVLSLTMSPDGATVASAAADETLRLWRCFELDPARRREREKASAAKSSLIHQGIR

These are yes or no findings as the source states them, for the method shown. Binding seen in cells or lysates may run through a third protein. Some results given as binding are weak or reduced against the parent protein; the word gives no strength.

On to “cell division cycle protein 20 (CDC20), Myc-tagged (from UniProt Q12834 1-499)”, for which the binding result is listed as “binds”.

These data come from article PMC8807357.
